Consider 42 sequences from publication PMC7819943, “Rice protein-binding microarrays: a tool to detect cis-acting elements near promoter regions in rice”.

Amino acid sequences for entries named in this document (tags omitted).
UniProt Q0JBA9, entry or part of it: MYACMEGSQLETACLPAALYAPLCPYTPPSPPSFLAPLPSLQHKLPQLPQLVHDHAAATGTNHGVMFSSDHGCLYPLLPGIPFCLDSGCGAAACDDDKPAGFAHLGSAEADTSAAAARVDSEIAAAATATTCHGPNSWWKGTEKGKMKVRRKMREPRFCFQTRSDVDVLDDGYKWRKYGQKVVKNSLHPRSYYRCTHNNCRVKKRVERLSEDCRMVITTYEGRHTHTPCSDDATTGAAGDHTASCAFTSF

The list shows a part of the results.

The test addresses OsWRKY34 (Oryza sativa, UniProt Q0JBA9 1-250). The test can be described thus: protein-binding microarray (RPBM); PBS, 2% BSA, 51.3 ng/ul salmon testes DNA, 50 uM zinc acetate, 200 nM TF, 25 C, 1 h; high values mean tight binding. The following applies: protein: recombinant; tags: N-terminal polyhistidine and DsRed monomer fusion (pET32a); label: CyDye5-dUTP incorporated in the synthesized complementary strand; 3' TTTTT single-stranded linker to array surface; dsDNA, one strand shown. The essentials:
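A custom Agilent array was converted to double-stranded form by primer extension with Cy5-dUTP and blocked with 2% BSA. Protein at 200 nM in PBS with 2% BSA, salmon testes DNA and 50 µM zinc acetate was applied for 1 h at 25 °C, followed by washing. The proteins were polyhistidine–DsRed N-terminal fusions of transcription factors, expressed in E. coli BL21-CodonPlus and Ni–NTA-purified. The binding signal is per-feature fluorescence intensity (arbitrary units) from an Axon 4000B scanner.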
For “GGAGGCCTAGGTGGTGGTGGTGGTCTTGGTGGAGGAGGGGCGGAGTCACCTAGTGCAG”, the binding signal is 28600 fluorescence intensity (a.u.).

Turning to “GTAAGCCTGCTCTTTCCATGTGCTTATGTGCTGATATGGCCGGAGTCACCTAGTGCAG”, the binding signal was 10500 fluorescence intensity (a.u.).

In the case of “AGAGTAAAACGAGTTTGTTCAGCTTTGTGGAGCTATGTATCGGAGTCACCTAGTGCAG”, the binding signal was 8600 fluorescence intensity (a.u.).

As to “CCTCTGCTTTTTTTCTTGTTTTTTTTAAACCTTTCTCGTCCGGAGTCACCTAGTGCAG”, the binding signal is 11300 fluorescence intensity (a.u.).

“CCTCGCCGCCGTCCACCTCCCCACCCGCTGCCGCCTCCGCCGGAGTCACCTAGTGCAG”: the binding signal is 10000 fluorescence intensity (a.u.). The same measure for “CGTCCTACTCACCGTCGCATCATCCACTGATCCGGCCGGCCGGAGTCACCTAGTGCAG”: 9180 fluorescence intensity (a.u.); for “ATTCGTTTGATGTTATGTTTTGTTCTCGCTTTGGTTGGCACGGAGTCACCTAGTGCAG”: 9470 fluorescence intensity (a.u.). The same measure for “TCTTAGCTCCGCCGTTGCCTTTGCCGTTGCCGCTGCCGTACGGAGTCACCTAGTGCAG”: 9390 fluorescence intensity (a.u.); for “TTGTTTTGAGGTCGGATGGGTGCCATGTCTGTATATTTTCCGGAGTCACCTAGTGCAG”: 8600 fluorescence intensity (a.u.); for “TCTACATCATGTTATCCGCGTCACATTACTAAAATCATAACGGAGTCACCTAGTGCAG”: 9450 fluorescence intensity (a.u.). The same measure for “GCACGCCTAGTTTGTGTCACCAAGTCCCTATTAAATCCTTCGGAGTCACCTAGTGCAG”: 9330 fluorescence intensity (a.u.). Consider “TCGTGTCTCGGCTGCTCCGTATGATTCTTCCGTGAACTGACGGAGTCACCTAGTGCAG”, for which the binding signal is 9100 fluorescence intensity (a.u.). For the sequence “AAACTACAGCTGCACCATGTGCCCTGATCATACAGAGTATCGGAGTCACCTAGTGCAG”, the binding signal was 8130 fluorescence intensity (a.u.). For the sequence “GGTGCATGAGCATACTGTCCGGAAGTACTTGCTCATTTTGCGGAGTCACCTAGTGCAG”, the binding signal was 8660 fluorescence intensity (a.u.). In the case of “ACTTATGTTGCTGTTTCCAGTTATATATATATATATCCTTCGGAGTCACCTAGTGCAG”, the binding signal was 9590 fluorescence intensity (a.u.). Next, “CCATGTAAGCTATTGTAGTCTCCTGATTCGTTCATGTCGACGGAGTCACCTAGTGCAG”: 8680 fluorescence intensity (a.u.); “GATAGGTGCATGTGTATCAGTTTGTCAGAGGCTGCCCGTCCGGAGTCACCTAGTGCAG”: 8400 fluorescence intensity (a.u.); “TCCCGCCTGATTCTTTTTTTTTTTGGTCGTGAGTTCTTCCCGGAGTCACCTAGTGCAG”: 9580 fluorescence intensity (a.u.).

“CTCCTTACCGATCTTCGTTTCGTTTCATACTCCGTACTACCGGAGTCACCTAGTGCAG”: the binding signal is 14000 fluorescence intensity (a.u.).

As for “GTTCGAGAACCCGTCCACGTTCATCCCAAGCATATGCATCCGGAGTCACCTAGTGCAG”, the binding signal was 8340 fluorescence intensity (a.u.).

“AATACTCATCGTTCCTGATCCAAGTGTTTAATTTTACAGCCGGAGTCACCTAGTGCAG”: the binding signal was 9930 fluorescence intensity (a.u.).

With “CCTCGAGTGCGACTCCCTCCGCCGCGACGCCGCGCTCCTACGGAGTCACCTAGTGCAG”, the binding signal is 8360 fluorescence intensity (a.u.). With “CTCATCCTTGCCTTGCCTAGCTACTCTCATATCTCACCCTCGGAGTCACCTAGTGCAG”, the binding signal was 10400 fluorescence intensity (a.u.). Next, “TTCCTCCGACAATATCGATCCAGCAACCAGGTCAGCTCTTCGGAGTCACCTAGTGCAG”: 9290 fluorescence intensity (a.u.); “GTGGCCGGCGGCGTTCGGGCGTGGGCGGGGAGGCCGGATCCGGAGTCACCTAGTGCAG”: 13700 fluorescence intensity (a.u.). Turning to “CCCATTATTTTTTATACCTTTATTTATCTTCTGTGTTTTTCGGAGTCACCTAGTGCAG”, the binding signal is 13500 fluorescence intensity (a.u.). The same measure for “TTGCTCTAAAAGAGGGAGGGGAGCAGTGAGGACAAACATCCGGAGTCACCTAGTGCAG”: 8720 fluorescence intensity (a.u.). The same measure for “CGGCGGGCGGGAGGGCGGCGTTGATTTCGTTGGGGTTTGCCGGAGTCACCTAGTGCAG”: 19100 fluorescence intensity (a.u.). Consider “CTTGCGTCGCATCGCCGTTCCCGTCCATCCGGTGGATCTCCGGAGTCACCTAGTGCAG”, for which the binding signal was 13900 fluorescence intensity (a.u.). Next, “GGTTTTGCAGGGCGAGGAGGGAGGGGAGGAGGGAAGGATGCGGAGTCACCTAGTGCAG”: 15900 fluorescence intensity (a.u.); “ATCCTCCAATTTTTCACATGCCCAATTCCTCCAAACCGAACGGAGTCACCTAGTGCAG”: 8080 fluorescence intensity (a.u.); “AGTTGTGAGTACTTGTTAGGGTTCAAATTATTTGACTTGTCGGAGTCACCTAGTGCAG”: 8640 fluorescence intensity (a.u.). Take “ATCCATCCGCACGAACTTGTCGTCGTTGCCCTTGCCGCTGCGGAGTCACCTAGTGCAG”: the binding signal was 8820 fluorescence intensity (a.u.). Next, “TTCTGTTTGGTGCCTCGAGGCCCAGGTCTAACTTAGCCTCCGGAGTCACCTAGTGCAG”: 8370 fluorescence intensity (a.u.). The same measure for “GAGTTGGTAAAGGTGCTCTTTGGGGAGGTGGAGGTCTTAACGGAGTCACCTAGTGCAG”: 11000 fluorescence intensity (a.u.); for “GCAGGGTTGTGATGCTAGTTTGGTGAGTGCTCAATTTATGCGGAGTCACCTAGTGCAG”: 8170 fluorescence intensity (a.u.); for “TGCTAATGTCTTTATCTTCTTGCAGGTCATGGGGATTTGACGGAGTCACCTAGTGCAG”: 9880 fluorescence intensity (a.u.).

On to “CCAACCATTGCCTTTTTTTACTATATAAAAATTTTGTTTTCGGAGTCACCTAGTGCAG”, for which the binding signal was 9810 fluorescence intensity (a.u.).

With “CATCTAGCAATCTGACTGTGTTTCATGTTTTCTTTTTAAGCGGAGTCACCTAGTGCAG”, the binding signal is 10300 fluorescence intensity (a.u.).

With “ACTCGTGATCGTGCCGCGCCTACTGGATCTCTGCTTCTGACGGAGTCACCTAGTGCAG”, the binding signal is 11300 fluorescence intensity (a.u.). The same measure for “ACTGGTTCTATGTCTTCTCATAAGCTACTCGCCATCCATTCGGAGTCACCTAGTGCAG”: 14000 fluorescence intensity (a.u.). Regarding “CCGCTCCGCCGCTCCGTGCTCCGACCTCCGGCGACCCCGGCGGAGTCACCTAGTGCAG”, the binding signal is 11300 fluorescence intensity (a.u.).
